The inconclusive results got no clear call from the source; some entries with a clear call stand among them for comparison. Where the call is inconclusive, the potency comes from a doubtful curve fit. The source made the active and inactive calls. Calls come from the whole dose curve; as a rule, active = well fitted activation curve with a large enough effect; inconclusive = small, poorly fitted or top-dose-only effect; inactive = flat fitted curve, though single readings scatter.
Assay: FLuc inhibitory activity for the follow-up compounds in a cell-based translational read-through assay
Conditions: GripTite 293 FLucUGA read-through, luminescence, 48 h; series mostly up to 38.3 µM
Source text: NCGC Assay Overview: Firefly (Photinus pyralis) luciferase is one of the most commonly used transcriptional reporters. It is considered one of the more dynamically responsive reporters - that is, responsive to changes in reporter transcription - as it requires no post-translational modifications and is enzymatically active directly after protein synthesis (Wood, 1998). With no endogenous expression in mammalian cells and without the requirement of external excitation, it offers very little background signal, thus generally providing excellent signal to background for most assays. Previous profiling work to determine the prevalence of compounds that affect FLuc enzymatic activity (PubChem AID 411) identified that ~3% of the MLSMR library (then at ~72K) inhibited FLuc (Auld et al., 2008). […] Of the compounds identified in this profile that inhibited FLuc, 151 compounds were selected for further analysis, in an effort to better understand their mode of inhibiting FLuc. The assay described here was to determine the activity of the compounds in a cell-based firefly luciferase reporter gene assay originally designed to identify compounds that enchanced translational read-through of a FLuc cDNA that contained a premature stop codon (Auld et al., 2009; Auld et al., 2010). Compounds that enhance translational read-through or compounds that stabilize FLuc intracellularly are identified as active compounds in the assay.
NCGC Assay Protocol Summary: Reagents: Transient transfection of FlucUGA construct: TransFast Transfection Reagent (Promega #E2431); FLucUGA construct (refer to Auld et al., 2009) #GripTite 293 MSR Cell Line (Invitrogen #R795-07) #Complete growth media: DMEM (Invitrogen #11965), 10% HIFBS, 0.1mM MEM NEAA, 5mL/L pen-strep (of 5000U/mL stock), 600ug/mL Geneticin #Assay media: DMEM without phenol red (Invitrogen #21063), 5% charcoal-stripped HIFBS (Hyclone #SH30071.03), 0.1mM MEM NEAA In-house detection reagent: 300mM Tris-HCl, 300mM Trizma base, 300mM MgCl, 1% Triton-X100, 5mM DTT, 500uM Coenzyme A trilithium salt (Sigma #C3019),450uM ATP (Sigma #A7699), 1mM D-luciferin sodium salt monohydrate (Biosynth #L8240) Control compounds used were two known firefly luciferase inhibitors (3-(5-(3-chlorophenyl)-1,2,4-oxadiazol-3-yl)benzoic acid and 5-(2-fluorophenyl)-3-phenyl-1,2,4-oxadiazole), and DMSO. Assay Summary: Transient transfection of FlucUGA construct: Day 1: GripTite cells were plated in T175 flasks at a density of 1.75 x 10^7 cells/T175 flask in complete growth media without Geneticin and allowed to grow ON in a 37 degrees Celsius incubator. Day 2: Cells in T175 flask were transfected - with 10ug of DNA and 30uL Transfast in 12mL complete growth media without serum and without Geneticin for 4 hours at 37 degrees Celsius. After incubation, cells were trypsinized, spun down, and resuspended to a concentration of 3.3 x 10^5 cells/mL in assay media. 6uL of cells in assay buffer were dispensed at 2000cells/well (3.3 x 10^5 cells/mL) into Greiner solid-white TC-treated 1536-well plates using a Multidrop Combi (Thermo Fisher Scientific). Plates were incubated for one hour at 37 degree Celsius, 95% humidity, 5% CO2. These assay plates were then treated with 23nL of compound or DMSO using a Kalypsys pin tool, which allows for delivery of a 12-point titration of each compound to the assay plate, with a final compound concentration ranging from approximately ~38uM to 0.2nM. Assay plates were then incubated for 48 hours. After incubation, plates were washed three times with DPBS (7uL/well). After the third wash, 6uL of DPBS was added to each well. 3uL of 3X luciferase detection reagent was then added to each well using a flying reagent dispenser (FRD). After a 15 minute incubation to allow for cell lysis, luciferase activity was measured using a ViewLux CCD imager (PerkinElmer), with an average exposure time of 2-12 seconds.
For `Cc1ccc(S(=O)(=O)N2CCOCC2)cc1C(=O)Nc1ccccc1C(=O)O`, the Potency was “inactive”. For `COc1ccc(CC(=O)Nc2ccc(-c3nc4ccccc4s3)c(C)c2)cc1`, the Potency was inconclusive: 5.65 µM [activator, partial curve, poor fit]. In the case of `O=C(Nc1ccccc1C(=O)O)c1ccc(NC(=O)C2CCCO2)cc1` (stereo not given), the Potency was “inactive”. With `O=C(O)c1ccc(NC(=O)c2ccccc2NC(=O)c2ccccc2Br)cc1` the Potency was inconclusive: 4.49 µM [activator, full curve]. For `CCOc1ccc2nc(NC(=O)c3cc([N+](=O)[O-])ccc3N3CCOCC3)sc2c1`, the Potency was “inactive”. For `COc1ccc2nc(NC(=O)c3cccs3)sc2c1`, the Potency was inconclusive: 5.04 µM [activator, full curve]. With `Cc1cccc(C(=O)Nc2ccccc2C(=O)Nc2ccc(C(=O)O)cc2)c1` the Potency was inconclusive: 11.3 µM [activator, partial curve]. In the case of `COc1ccc2nc(NC(=O)c3ccc4ncsc4c3)sc2c1`, the Potency was inconclusive: 10 µM [activator, full curve, poor fit]. In the case of `O=C(Cc1ccccc1)Nc1ccc(C(=O)Nc2ccccc2C(=O)O)cc1`, the Potency was “inactive”. For `COc1ccc(C(=O)Nc2nc3ccc(OC)cc3s2)cc1`, the Potency was inconclusive: 0.798 µM [activator, full curve]. For `O=C(O)c1ccc(NC(=O)c2ccccc2NC(=O)c2ccccc2Cl)cc1`, the Potency was inconclusive: 0.798 µM [activator, full curve]. In the case of `Nc1ccc2nc(-c3ccc(O)cc3)sc2c1`, the Potency was inconclusive: 2 µM [activator, full curve]. With `O=C(Nc1ccccc1-c1nc2ccccc2s1)c1ccc(Br)o1` the Potency was inconclusive: 2.25 µM [activator, full curve, poor fit]. With `COc1ccc2nc(NC(=O)c3ccc([N+](=O)[O-])o3)sc2c1` the Potency was inconclusive: 5.65 µM [activator, full curve]. For `O=C(O)c1cccc(NC(=O)c2ccc(COc3ccc(Cl)cc3)cc2)c1`, the Potency was inconclusive: 6.34 µM [activator, full curve, poor fit]. In the case of `COc1ccc(NS(=O)(=O)c2cccc(C(=O)Nc3ccccc3C(=O)O)c2)cc1`, the Potency was “inactive”. In the case of `CCn1c(C)nc2cc(-c3nc4n(n3)Cc3ccccc3-4)ccc21`, the Potency was inconclusive: 0.126 µM [activator, full curve, poor fit]. In the case of `COc1ccc2nc(NC(=O)C3CCN(S(=O)(=O)c4cccnc4)CC3)sc2c1`, the Potency was inconclusive: 4.49 µM [activator, partial curve]. For `c1ccc2sc(-c3ccc4c(c3)OCO4)nc2c1`, the Potency was active: 1.26 µM. With `O=C(Nc1ccccc1C(=O)O)c1ccc(NC(=O)C2CC2)cc1` the Potency was “inactive”. In the case of `COc1ccc2nc(NC(=O)c3nc(S(=O)(=O)Cc4ccc(C)cc4)ncc3Cl)sc2c1`, the Potency was inconclusive: 5.04 µM [activator, partial curve, poor fit]. For `COc1ccc2nc(NC(=O)CCc3ccc(OC)c(OC)c3)sc2c1`, the Potency was “inactive”. With `COc1ccc2nc(NC(=O)c3cccc(S(=O)(=O)N4CCOCC4)c3)sc2c1` the Potency was “inactive”. In the case of `O=C(Nc1cccc(-c2nc3ccccc3s2)c1)c1cc(-n2cnnc2)ccc1Cl`, the Potency was inconclusive: 11.3 µM [activator, partial curve]. With `Nc1ccccc1C(=O)Nc1cccc(C(=O)O)c1` the Potency was active: 28.3 µM. With `CCOc1ccc2nc(NC(=O)c3ccccc3)sc2c1` the Potency was inconclusive: 0.225 µM [activator, full curve]. With `O=C(O)c1cccc(NC(=O)c2cccc(S(=O)(=O)Nc3cccc(F)c3)c2)c1` the Potency was “inactive”. For `O=C(O)c1cccc(NC(=O)c2ccc(Cl)c(S(=O)(=O)N3CCCCCC3)c2)c1`, the Potency was active: 0.711 µM. For `O=C(O)c1ccc(NC(=O)c2cccc(NC(=O)c3cccs3)c2)cc1`, the Potency was “inactive”. In the case of `COc1cccc(OC)c1C(=O)Nc1cccc(C(=O)Nc2cccc(C(=O)O)c2)c1`, the Potency was “inactive”. For `O=C(O)c1cccc(NC(=O)c2cccc(S(=O)(=O)N3CCCCC3)c2)c1`, the Potency was inconclusive: 12.6 µM [activator, partial curve]. In the case of `COc1ccc2nc(NC(=O)c3ccc(NS(=O)(=O)c4cccs4)cc3)sc2c1`, the Potency was “inactive”. For `CC(=O)Oc1ccc(C(=O)Nc2ccccc2C(=O)Nc2ccc(C(=O)O)cc2)cc1`, the Potency was “inactive”. For `CC(C)CC(=O)Nc1cccc(C(=O)Nc2ccccc2C(=O)O)c1`, the Potency was inconclusive: 8.95 µM [activator, single point]. In the case of `O=C(Nc1ccccc1C(=O)O)c1cccc(NC(=O)c2ccco2)c1`, the Potency was inconclusive: 0.503 µM [activator, full curve]. With `COc1ccc2nc(NC(=O)CCc3nc(-c4ccccc4F)no3)sc2c1` the Potency was “inactive”. For `CCOc1ccc2nc(NC(=O)Cc3cccs3)sc2c1`, the Potency was inconclusive: 0.126 µM [activator, full curve, poor fit]. In the case of `O=C(Nc1ccccc1C(=O)O)c1cccc(NC(=O)c2ccccc2Cl)c1`, the Potency was “inactive”. For `COc1ccc2nc(NC(=O)c3cnccn3)sc2c1`, the Potency was active: 0.565 µM. For `CCOc1ccc(C(=O)Nc2cccc(C(=O)O)c2)cc1Cl`, the Potency was inconclusive: 0.503 µM [activator, full curve].

— PubChem BioAssay AID602476 (National Center for Advancing Translational Sciences (NCATS), 2012)
